The source of these data is paper PMC5314769, “Structural insights into dynamics of RecU–HJ complex formation elucidates key role of NTR and stalk region toward formation of reactive state” (Nucleic Acids Research, 2016).

The series deals with T1, RecU D88N (Bacillus subtilis) (UniProt P39792).
T1 sequence (looked up, limits assumed): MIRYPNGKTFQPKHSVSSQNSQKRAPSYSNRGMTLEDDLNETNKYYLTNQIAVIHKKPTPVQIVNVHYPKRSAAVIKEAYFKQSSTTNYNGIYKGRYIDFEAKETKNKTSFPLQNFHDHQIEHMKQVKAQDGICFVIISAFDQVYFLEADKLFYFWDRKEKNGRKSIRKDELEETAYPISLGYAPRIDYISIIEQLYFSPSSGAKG
The series is described as follows: thermofluor. The settings on record: 1:1 molar ratio; Thermofluor: 100 mM MES pH 6.5, 5 ug RecU D88N per well, DNA 1:1 molar, Sypro orange, 25-100 C in 1 C steps; crystals: 0.1 M BICINE pH 9, 10% PEG 6000, 17 C; recombinant protein.

For at least one entry, the source does not settle the construct or the ends of the probe. Whether high values mean tight binding is not given here for every scale. Tags and fusion partners may be left off the protein sequences shown.

As for “ACGCAATTGCGT (double strand) [12 bp palindromic duplex]”, the binding signal was 0.75 delta Tm, C.
